The values below come from paper PMC10712050.

Chains of the proteins cited; added tags and fusions are not shown. Lines headed by an entry give the natural chain unless they say otherwise; changes in a name come on top.
UniProt P03953: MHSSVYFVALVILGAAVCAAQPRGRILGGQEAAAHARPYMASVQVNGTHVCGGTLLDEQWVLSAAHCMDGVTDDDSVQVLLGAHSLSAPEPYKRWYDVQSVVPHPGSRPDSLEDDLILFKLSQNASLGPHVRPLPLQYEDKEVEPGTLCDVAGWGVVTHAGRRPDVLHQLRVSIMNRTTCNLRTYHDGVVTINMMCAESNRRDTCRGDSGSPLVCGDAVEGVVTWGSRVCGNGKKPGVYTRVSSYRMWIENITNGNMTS

Results are given in words; binding and its absence hold for the method and conditions named. Binding seen in cells or lysates may run through a third protein. Binding calls can cover weak binding; strength is not graded here.

The target in experiment [1] is GST-Adipsin fusion protein (UniProt P03953). Briefly: pull-down; GST-Adipsin immobilised on glutathione agarose (Pierce GST Protein Interaction Pull Down kit), prey from primary cardiomyocyte lysate, eluted complexes immunoblotted; only the target purified.
Experiment [2] addresses Adipsin expressed from adenovirus (Ad-Adipsin) in cardiomyocytes (UniProt P03953). Briefly: co-IP; cardiomyocytes infected with Ad-Adipsin, with or without PA challenge; protein A/G magnetic beads conjugated with anti-Adipsin and anti-Irak2 antibodies; immunoblot. Background: Immunoblotting shows a protein as a band on a membrane.

B1: interleukin-1 receptor-associated kinase-like 2 (Irak2) (protein, UniProt Q8CFA1 1-622)
chain: MACYIYQLPSWVLDDLCRNIDTLSEWDWMQFASYVITDLTQLRKIKSMERVQGVSITRELLWWWSMRQATVQQLVDLLCHLELYRAAQIVLSWKPVPESTSPLPAFPEAVKPGAVATSRRNLKDEQEKVRPVKPRSLLDTGPIMAGAQRQRPCEMDAPCSLKTDAPDSPQSKYCSTSTSAPKQERLLGLPGDRLFWSEADVVQATEDFDQSHRISEGTFADIYQGQRNGVAFAFKKLREVAGSSPGSMDRFLQAEMQLCLRCCHANVLPLLGFCTGRQFHSLIYPYMANGSLHDRLWAQGNSDMLPWPQRASICSGLLLAVEHLHSLDIIHSNVKSANVLLDQHLNPKLAHPVAHPHPDNKKTKYTVMRTHLFQASAAYLPEHFIRVGQLTKQVDIFSCGIVLAEVLTGIPAMDKDRSPVYLKDLLLSEIPNSTSSVCSRKTSMGKAVVKEICQRHVEKRAGLLPEACEEAWATAVSVCLRRRNASVEEARVSLAGVEEQLRGQLSLPWSRVSEATGSSSNTPEETDDVDNSSLSVPSLVMMASCPGAASSPLFTGHGAAQPSTSGRQEADSSSEACTGPQTPQNATETSWKIEINEAKRRLMENIVLYKEERLDSSELFGP
With B1, the binding entry in experiment [1] and in experiment [2] was “binds” each time.
